PubChem BioAssay AID1259425 | University of Nebraska Medical Center – 2018
Test: 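Compare each knockdown with KSR1 silencing using changes in marker transcripts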 (primary screen). System: HCT116 human colon cancer cells. Knock-down reagent: siRNA pool against human genes, 50 nM siRNA. Measured: 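After 50 nM siRNA pool, branched-DNA assay measures six marker transcripts per well, minus blank, normalised to the geometric mean of two housekeeping transcripts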. Scale: BNIP3L mRNA: higher = more BNIP3L transcript after knockdown.
This is an unselected part of about 14,000 reagents tested. A reagent listed more than once was tested more than once; the source does not tell the runs apart. Further read-outs or replicates are left out here. Not stated in the record: the time to read-out.

With knock-down of PEPD, the record shows BNIP3L mRNA, set 1 = 0.0651.
Against SNRK, the values are BNIP3L mRNA, set 1 = 0.169.
After knock-down of KLF7, the screen gave BNIP3L mRNA, set 1 = 0.0696.
Knock-down of LILRB4 came out at: BNIP3L mRNA, set 1 = 0.0599.
For KIRREL1 the deposit lists BNIP3L mRNA, set 1 = 0.25.
Against KDM6B, the values are BNIP3L mRNA, set 1 = 0.246.
For ZNRF3 the deposit lists BNIP3L mRNA, set 1 = 0.173.
HHIPL1 scored BNIP3L mRNA, set 1 = 0.248.
Depletion of RTF1 resulted in: BNIP3L mRNA, set 1 = 0.122.
Silencing of HDAC3 came out at: BNIP3L mRNA, set 1 = 0.156.
Knock-down of LRRC37A came out at: BNIP3L mRNA, set 1 = 0.083.
Silencing of ATXN1 came out at: BNIP3L mRNA, set 1 = 0.157.
PLS1 gave BNIP3L mRNA, set 1 = 0.105.
Depletion of CFHR1 came out at: BNIP3L mRNA, set 1 = 0.125.
Silencing of RFPL3 came out at: BNIP3L mRNA, set 1 = 0.0693.
After knock-down of CPNE7, the record shows BNIP3L mRNA, set 1 = 0.0749.
For SLC30A10 the deposit lists BNIP3L mRNA, set 1 = 0.0692.
With knock-down of ADGRF4 the results were BNIP3L mRNA, set 1 = 0.142.
Depletion of SLC14A2 resulted in: BNIP3L mRNA, set 1 = 0.0985.
B9D2 gave BNIP3L mRNA, set 1 = 0.244.
TIAM1 scored BNIP3L mRNA, set 1 = 0.0584.
Against ERC2 the deposit lists BNIP3L mRNA, set 1 = 0.103.
After knock-down of BDKRB1 the results were BNIP3L mRNA, set 1 = 0.235.
H4C13 scored BNIP3L mRNA, set 1 = 0.133.
For MAMDC4, the entry reads BNIP3L mRNA, set 1 = 0.0899.
ASNSD1 showed BNIP3L mRNA, set 1 = 0.0983.
Against RFX5 the deposit lists BNIP3L mRNA, set 1 = 0.115.
Against CEACAM4, the entry reads BNIP3L mRNA, set 1 = 0.09.
After knock-down of TCF25, the record shows BNIP3L mRNA, set 1 = 0.268.
Silencing of ADAMTSL3 gave: BNIP3L mRNA, set 1 = 0.0845.
ADAMTSL3 gave BNIP3L mRNA, set 1 = 0.123.
ZNF264 showed BNIP3L mRNA, set 1 = 0.199.
Silencing of DANCR resulted in: BNIP3L mRNA, set 1 = 0.157.
Silencing of RNF111 resulted in: BNIP3L mRNA, set 1 = 0.137.
ZNF581 gave BNIP3L mRNA, set 1 = 0.108.
NLRP14 gave BNIP3L mRNA, set 1 = 0.0319.
